Reference: patent US7388080
Results are given in words; binding and its absence hold for the method and conditions named. Some entries that bind do so weakly or less than the wild type. Tags and fused reporters may be left off the sequences shown.

What was measured:
Conditions in all cases: remark: other sources report otherwise
[1] = target: T1, TLR2^CFP (TLR2 tagged at its C-terminus with cyan fluorescent protein), stably expressed in HEK293 cells (human), O60603; assay: antibody-induced capping (TL2.1 plus Alexa647 goat anti-mouse), confocal microscopy
[2] = target: T1, TLR2^CFP (TLR2 tagged at its C-terminus …); assay: confocal microscopy of living co-transfected HEK293 cells; antibody-induced capping
[3] = target: T1, TLR2^CFP (TLR2 tagged at its C-terminus …); assay: confocal microscopy of TLR1-TLR2 co-transfected cells incubated with anti-TLR2
[4] = target: T1, TLR2^CFP (TLR2 tagged at its C-terminus …); assay: confocal microscopy of transfected HEK cells

Measured: binding

B1: TLR1^YFP (TLR1 tagged at its C-terminus with yellow fluorescent protein), stably expressed in HEK293 cells, Q15399 25-786 (receptor, UniProt Q15399 25-786, looked up, not shown: large carriers)
chain: SEFLVDRSKNGLIHVPKDLSQKTTILNISQNYISELWTSDILSLSKLRILIISHNRIQYLDISVFKFNQELEYLDLSHNKLVKISCHPTVNLKHLDLSFNAFDALPICKEFGNMSQLKFLGLSTTHLEKSSVLPIAHLNISKVLLVLGETYGEKEDPEGLQDFNTESLHIVFPTNKEFHFILDVSVKTVANLELSNIKCVLEDNKCSYFLSILAKLQTNPKLSNLTLNNIETTWNSFIRILQLVWHTTVWYFSISNVKLQGQLDFRDFDYSGTSLKALSIHQVVSDVFGFPQSYIYEIFSNMNIKNFTVSGTRMVHMLCPSKISPFLHLDFSNNLLTDTVFENCGHLTELETLILQMNQLKELSKIAEMTTQMKSLQQLDISQNSVSYDEKKGDCSWTKSLLSLNMSSNILTDTIFRCLPPRIKVLDLHSNKIKSIPKQVVKLEALQELNVAFNSLTDLPGCGSFSSLSVLIIDHNSVSHPSADFFQSCQKMRSIKAGDNPFQCTCELGEFVKNIDQVSSEVLEGWPDSYKCDYPESYRGTLLKDFHMSELSCNITLLIVTIVATMLVLAVTVTSLCSYLDLPWYLRMVCQWTQTRRRARNIPLEELQRNLQFHAFISYSGHDSFWVKNELLPNLEKEGMQICLHERNFVPGKSIVENIITCIEKSYKSIFVLSPNFVQSEWCHYELYFAHHNLFHEGSNSLILILLEPIPQYSIPSSYHKLKSLMARRTYLEWPKEKSKRGLFWANLRAAINIKLTEQAKK
binds: [1] | [2] | [3] | [4]
